# Some of the results follow. Single values are uncertain, as repeats are few or missing.
# Tests used:
# Details in all cases: RNA concentration 10 µM; fragment concentration 200 µM; 293 K
# [1] = system: SARS-CoV-2 5_SL5stem RNA; assay: waterLOGSY factor (bound vs free ligand) (ratio); higher = stronger binding
# [2] = system: SARS-CoV-2 3'-UTR RNA; assay: T2 signal reduction relative to ligand without RNA (fraction); higher = stronger binding
# [3] = system: SARS-CoV-2 3_SL3base RNA; assay: as above
# [4] = system: SARS-CoV-2 3_s2m RNA; assay: as above
# [5] = system: SARS-CoV-2 5_SL1234 RNA; assay: as above
# [6] = system: SARS-CoV-2 5_SL4 RNA; assay: as above
# [7] = system: SARS-CoV-2 5_SL5 RNA; assay: as above
# [8] = system: SARS-CoV-2 5_SL5stem RNA; assay: as above
# [9] = system: SARS-CoV-2 5_SL6 RNA; assay: waterLOGSY factor (bound vs free ligand) (ratio); higher = stronger binding
# [10] = system: SARS-CoV-2 5_SL8 RNA; assay: as above
# [11] = system: SARS-CoV-2 5'-UTR RNA; assay: T2 signal reduction relative to ligand without RNA (fraction); higher = stronger binding
# [12] = system: SARS-CoV-2 5_SL6 RNA; assay: as above
# [13] = system: SARS-CoV-2 5_SL7 RNA; assay: waterLOGSY factor (bound vs free ligand) (ratio); higher = stronger binding
# [14] = system: SARS-CoV-2 frameshift pseudoknot (PK) RNA; assay: as above
# [15] = system: SARS-CoV-2 3_SL1+2 RNA; assay: T2 signal reduction relative to ligand without RNA (fraction); higher = stronger binding
# [16] = system: SARS-CoV-2 3_SL2 RNA; assay: as above
# [17] = system: SARS-CoV-2 5_SL1 RNA; assay: as above
# [18] = system: SARS-CoV-2 3_SL1 RNA; assay: as above
# [19] = system: SARS-CoV-2 5_SL5b+c RNA; assay: as above
# [20] = system: SARS-CoV-2 attenuator hairpin (att HP) RNA; assay: waterLOGSY factor (bound vs free ligand) (ratio); higher = stronger binding
structure (smiles),measurement,setting,value
Cc1cccc(NC(=O)Nc2nc(C)cs2)c1,waterLOGSY factor,[1],2.13
same,T2 signal reduction,[2],0.69
same,T2 signal reduction,[3],0.76
same,T2 signal reduction,[4],0.76
same,T2 signal reduction,[5],0.91
same,T2 signal reduction,[6],0.87
same,T2 signal reduction,[7],0.88
same,T2 signal reduction,[8],0.8
CNC(=O)c1ccccc1NC(=O)c1ccco1,waterLOGSY factor,[9],0.619
same,waterLOGSY factor,[10],1.1
same,T2 signal reduction,[2],0.59
same,T2 signal reduction,[3],0.72
same,T2 signal reduction,[11],0.75
same,T2 signal reduction,[7],0.75
same,T2 signal reduction,[12],0.35
CC(=O)c1ccc(NC(=O)CN2CCCC2)cc1,waterLOGSY factor,[13],0.828
same,waterLOGSY factor,[14],1.5
same,T2 signal reduction,[2],0.52
same,T2 signal reduction,[15],0.34
same,T2 signal reduction,[16],0.22
same,T2 signal reduction,[3],0.63
same,T2 signal reduction,[4],0.39
same,T2 signal reduction,[11],0.45
same,T2 signal reduction,[17],0.26
same,T2 signal reduction,[7],0.44
O=C(Nc1ccc(O)cc1)c1ccc(Cl)cc1,T2 signal reduction,[2],0.44
same,T2 signal reduction,[3],0.49
same,T2 signal reduction,[11],0.38
CCNC1CCN(c2ccncc2)CC1,waterLOGSY factor,[13],1.34
same,waterLOGSY factor,[14],2.71
same,T2 signal reduction,[2],0.4
same,T2 signal reduction,[18],0.41
same,T2 signal reduction,[15],0.67
same,T2 signal reduction,[16],0.31
same,T2 signal reduction,[3],0.63
same,T2 signal reduction,[4],0.48
same,T2 signal reduction,[17],0.35
same,T2 signal reduction,[19],0.59
CC(=O)Nc1ccncc1C,T2 signal reduction,[2],0.01
O=C(Nc1ccc2[nH]c(=O)[nH]c2c1)c1ccco1,T2 signal reduction,[2],0.43
same,T2 signal reduction,[3],0.43
same,T2 signal reduction,[11],0.62
Cc1nccc(N2CCC(N)CC2)n1,waterLOGSY factor,[14],1.88
same,T2 signal reduction,[2],0.1
same,T2 signal reduction,[15],0.45
same,T2 signal reduction,[16],0.24
same,T2 signal reduction,[3],0.56
same,T2 signal reduction,[4],0.15
same,T2 signal reduction,[11],0.44
same,T2 signal reduction,[19],0.61
c1cc(-c2ccc3c(c2)OCO3)n[nH]1,waterLOGSY factor,[10],0.574
same,T2 signal reduction,[2],0.51
same,T2 signal reduction,[3],0.41
same,T2 signal reduction,[11],0.84
same,T2 signal reduction,[7],0.94
Cc1cc2ncn(CC(N)=O)c2cc1C,T2 signal reduction,[2],0.21
CCc1nc(-c2ccc(Cl)cc2)no1,T2 signal reduction,[2],0.48
Nc1nccc(-c2ccc(Cl)cc2)n1,waterLOGSY factor,[14],3.92
same,T2 signal reduction,[2],0.67
same,T2 signal reduction,[16],0.21
same,T2 signal reduction,[3],0.83
same,T2 signal reduction,[11],0.9
same,T2 signal reduction,[7],1.02
same,T2 signal reduction,[19],0.23
NC(=O)c1ccnc(NC2CC=CC2)c1,T2 signal reduction,[2],0.14
same,T2 signal reduction,[15],0.34
same,T2 signal reduction,[6],0.26
same,T2 signal reduction,[7],0.22
Cc1occc1C(=O)Nc1ccncc1,waterLOGSY factor,[1],0.92
same,waterLOGSY factor,[10],0.293
same,waterLOGSY factor,[14],1.95
same,T2 signal reduction,[2],0.4
same,T2 signal reduction,[15],0.48
same,T2 signal reduction,[3],0.63
same,T2 signal reduction,[11],0.86
same,T2 signal reduction,[17],0.24
same,T2 signal reduction,[7],0.8
same,T2 signal reduction,[8],0.86
CCOC(=O)c1cc(-c2ccc(C)cc2)no1,T2 signal reduction,[2],0.65
c1cnc(N2CCC3(CCOC3)C2)cn1 (centres undefined),T2 signal reduction,[2],0.24
Cc1ccc(Nc2ncnc3[nH]ncc23)cc1,T2 signal reduction,[2],0.58
COc1ccc(C(=O)Nc2ccccc2F)cc1,T2 signal reduction,[2],0.27
CC(C)NC(=O)c1ccc2ccccc2n1,T2 signal reduction,[2],0.21
COc1ccc2sc(N)nc2c1,T2 signal reduction,[2],0.49
same,T2 signal reduction,[3],0.58
same,T2 signal reduction,[11],0.81
same,T2 signal reduction,[7],0.62
Cc1cc(C(=O)Nc2ccc3[nH]ccc3c2)no1,T2 signal reduction,[2],0.31
same,T2 signal reduction,[3],0.31
Oc1ccc(CN2CCCC2)c2cccnc12,T2 signal reduction,[2],0.34
same,T2 signal reduction,[3],0.64
same,T2 signal reduction,[11],1.04
CNCC(=O)Nc1cc(C)ccn1,T2 signal reduction,[2],0.33
same,T2 signal reduction,[3],0.59
same,T2 signal reduction,[11],1.08
COc1ccc(NC(=O)Nc2cccs2)cn1,T2 signal reduction,[2],0.33
OCc1cn(-c2ccc(Cl)c(Cl)c2)nn1,waterLOGSY factor,[9],4.33
same,waterLOGSY factor,[13],7.23
same,waterLOGSY factor,[10],3.21
same,waterLOGSY factor,[20],1.69
same,waterLOGSY factor,[14],2.54
same,T2 signal reduction,[2],0.67
same,T2 signal reduction,[18],0.34
same,T2 signal reduction,[15],0.63
same,T2 signal reduction,[16],0.64
same,T2 signal reduction,[3],0.48
same,T2 signal reduction,[4],0.45
same,T2 signal reduction,[11],0.92
same,T2 signal reduction,[17],0.14
same,T2 signal reduction,[5],0.35
same,T2 signal reduction,[6],0.51
same,T2 signal reduction,[7],0.74
same,T2 signal reduction,[19],0.43
same,T2 signal reduction,[8],0.59
same,T2 signal reduction,[12],0.17
N#Cc1ccc(NC(=O)c2cccs2)cc1,T2 signal reduction,[2],0.75
same,T2 signal reduction,[3],0.63
same,T2 signal reduction,[11],0.82
same,T2 signal reduction,[7],0.75
NC(=O)c1cc(N2CCCC2)ccn1,waterLOGSY factor,[13],0.85
same,T2 signal reduction,[2],0.58
same,T2 signal reduction,[15],0.41
same,T2 signal reduction,[3],0.68
same,T2 signal reduction,[4],0.46
same,T2 signal reduction,[11],0.93
same,T2 signal reduction,[6],0.49
same,T2 signal reduction,[7],0.49
COc1ccc(Nc2ncnc3[nH]cnc23)cc1,T2 signal reduction,[2],0.46
same,T2 signal reduction,[3],0.54
same,T2 signal reduction,[11],0.5
same,T2 signal reduction,[7],0.43
CC(=O)Nc1ccc2[nH]c(=O)[nH]c2c1,T2 signal reduction,[2],0.36
O=C(Nc1ccon1)c1cccc(Cl)c1,waterLOGSY factor,[1],1.22
same,T2 signal reduction,[2],0.51
same,T2 signal reduction,[3],0.32
same,T2 signal reduction,[11],0.73
same,T2 signal reduction,[7],0.55
same,T2 signal reduction,[8],0.56
CNc1nccc(OC)n1,T2 signal reduction,[2],0.54
Cc1sc2ncnc(N(C)C)c2c1C,T2 signal reduction,[2],0.64
same,T2 signal reduction,[3],0.43
same,T2 signal reduction,[11],0.81
same,T2 signal reduction,[7],0.9
OCc1ccc(-n2cnc3ccccc32)cc1,T2 signal reduction,[2],0.2
same,T2 signal reduction,[11],0.23
Cl.NCc1cc(-c2ccccc2)no1,waterLOGSY factor,[13],1.59
same,T2 signal reduction,[2],0.32
same,T2 signal reduction,[4],0.26
same,T2 signal reduction,[11],0.84
c1coc(CNc2nc3ccccc3[nH]2)c1,T2 signal reduction,[15],0.37
same,T2 signal reduction,[3],0.29
same,T2 signal reduction,[11],0.25
COc1ccc2[nH]cc(CN(C)C)c2c1,waterLOGSY factor,[13],0.787
same,T2 signal reduction,[11],0.4
CNCc1cnn(-c2ccccc2)c1,T2 signal reduction,[11],0.51
same,T2 signal reduction,[19],0.42
CNC(=O)Nc1nc2ccc(OC)cc2s1,waterLOGSY factor,[13],0.477
same,waterLOGSY factor,[14],1.47
same,T2 signal reduction,[4],0.5
same,T2 signal reduction,[17],0.84
same,T2 signal reduction,[5],0.63
same,T2 signal reduction,[6],0.49
CN(C)c1ccc(C(=O)Nc2ccncc2)cc1,waterLOGSY factor,[13],1.21
same,waterLOGSY factor,[10],67.6
same,T2 signal reduction,[18],1
same,T2 signal reduction,[16],1
same,T2 signal reduction,[5],-0.95
same,T2 signal reduction,[6],0.86
same,T2 signal reduction,[19],0.91
O=C(Nc1ccc2ncccc2c1)c1ccccc1,waterLOGSY factor,[10],0.742
same,T2 signal reduction,[2],0.51
same,T2 signal reduction,[3],0.57
same,T2 signal reduction,[11],0.59
same,T2 signal reduction,[7],0.26

# Reference: the supplement of paper PMC8426693
